Experimental data reported in PubChem BioAssay AID1347423 (Functional Genomics Laboratory (NCATS/FGL), 2020).
In all, about 52,000 sequences went through this assay and about 210 (0.4%) were called active.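 Rule for the calls: active = gene whose silencing raises cell survival under the drug, median off-target-corrected z-score across its silencing RNAs 2 or more; inactive = the rest.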 Some of the results follow.

Assay: Resistance to Poly (ADP-Ribose) Polymerase inhibitor: Gene Identification via Genome-wide siRNA Screen
Details: mouse BRCA2 R2336H ES cells, olaparib, CellTiter-Glo viability; active compounds read high
Method in brief: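 Genome-wide siRNA screen (3 siRNAs/gene, 20 nM) in mouse ES cells carrying hypomorphic BRCA2 R2336H; olaparib 500 nM added 48 h post-transfection, CellTiter-Glo viability 72 h later. Normalized to plate-median negative control; MAD z-scores, gene median, seed-adjusted.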

Sequence | z-score
GAAGAAACUCAUGACAAAUTT against 4930503B16Rik | inactive: 0.377
GCAGAUUCGGAAGUAAACATT against D130054N24Rik | inactive: 0.5
CCUCACUCCUUUCUGUAAATT against BC021785 | inactive: -0.743
GGAAAUCUGCUUACUUUUGTT against Ppm1l | inactive: 0.67
CCAGAUGGGAUACCUCUACTT against 1810015P03Rik | inactive: 0.193
GGAGGAAGCUGAUGAGAAUTT against Stx4a | inactive: -0.721
GCCAGAGCUAGUUGAAUCCTT against Rce1 | inactive: -0.0634
GGAAAGUUAUACUUUAGGGTT against D430004I08Rik | inactive: 0.483
CCCUUGAUUACACCACAGUTT against Cfc1 | inactive: -1.8
GGCCACCAGAAUUGUUCACTT against C6.1AL | inactive: -0.622
GGGACAGGAACAAACAAGCTT against Polq | inactive: 1.02
CGACACUAGUGAUCACUCUTT against 6330530A05Rik | inactive: 0.295
CCACGUAUUGUUAGUAGAATT against Ei24 | inactive: 0.629
GGAUUUGUAAGACUAAUCUTT against Xdh | inactive: 0.928
GCUAACGUACCUGUAACUUTT against Cnp1 | inactive: 0.939
GGUGUGGACUAUGAUACCATT against Anxa9 | inactive: 0.693
GGAUCAAAGGAAGAAGGGCTT against BC055367 | inactive: 0.0172
CCACAUCUUACUACUGCAUTT against Th | inactive: 0.47
CCGAAAACUUAUCUAGAAATT against BC023105 | inactive: -1.43
GCAUGAUGGGUGGCAGAAUTT against Olfr978 | inactive: -2.04
GGUAUGAUGUUUGUUUUGCTT against Zfp537 | inactive: 0.494
CCAUAUGGUAACCAAACCGTT against Ldb1 | inactive: -0.337

As a working copy, part of the list above.
Sequence | z-score
GGAGGAAGCUGAUGAGAAUTT against Stx4a | inactive: -0.721
GCCAGAGCUAGUUGAAUCCTT against Rce1 | inactive: -0.0634
GGAAAGUUAUACUUUAGGGTT against D430004I08Rik | inactive: 0.483
CCCUUGAUUACACCACAGUTT against Cfc1 | inactive: -1.8
GGCCACCAGAAUUGUUCACTT against C6.1AL | inactive: -0.622
GGGACAGGAACAAACAAGCTT against Polq | inactive: 1.02
CGACACUAGUGAUCACUCUTT against 6330530A05Rik | inactive: 0.295
CCACGUAUUGUUAGUAGAATT against Ei24 | inactive: 0.629
GGAUUUGUAAGACUAAUCUTT against Xdh | inactive: 0.928
GCUAACGUACCUGUAACUUTT against Cnp1 | inactive: 0.939
GGUGUGGACUAUGAUACCATT against Anxa9 | inactive: 0.693
GGAUCAAAGGAAGAAGGGCTT against BC055367 | inactive: 0.0172
CCACAUCUUACUACUGCAUTT against Th | inactive: 0.47
CCGAAAACUUAUCUAGAAATT against BC023105 | inactive: -1.43
GCAUGAUGGGUGGCAGAAUTT against Olfr978 | inactive: -2.04

Remaining list, next part.

Sequence | z-score
GGAAAAGAGACUGAAGAAATT against Lhx3 | inactive: -0.169
GGAGCCGAGUACAACAUCATT against Galgt1 | inactive: 0.763
GGAAAGAGAGCUGAGCUUATT against Pla2g2a | inactive: -0.374
GGGUUUGCUCAUAAAAUAATT against 4933400A11Rik | inactive: -1.79
GCAGUAACUGUGUCAAAAUTT against Zan | inactive: 3.84
CGUGGAGCUACCAUAUAGGTT against Mobkl2b | inactive: 3.35
GCACCCUAAUGUGAUCGCATT against 2700084L06Rik | inactive: 0.533
GUGAUGGUUGAUGACCCACTT against LOC56628 | inactive: -0.264
GGACCAUGAGGGAAUACAGTT against Bdkrb2 | inactive: -2.46
GCUACGGCGUGGUUUAUGATT against Stk35 | inactive: 1.76
CCCAAUAUGUUAGACCCUGTT against Slc16a8 | inactive: 0.52
GGCAUUCAUCUAGUCCUGCTT against Bst1 | inactive: 0.355
CGAUGAGCUAAGAGAGUCCTT against 2210404G23Rik | inactive: -0.0999
GGAAGAUCUCAGUGAGCAUTT against 2310032D16Rik | inactive: 1.26
GGUGUGUUUUCAUGUUUUUTT against Rel | inactive: 1.53
GGUGAAAUUUUAUGAAGAGTT against Adrbk2 | inactive: -1.54
GCUGCAUGCGUAAAUAGAATT against Slc22a19 | inactive: -1.34
GGACCACAAAUAGCAAAAATT against Zfp74 | inactive: 0.614
GCCAGAUGAUUGUGCAUCCTT against Nfatc3 | inactive: 0.0663
GGAAAUGGCAGGCAAGAUCTT against Gpr50 | inactive: -0.268
GGCUUUCAAUACGUGUGUCTT against Olfr15 | inactive: -1.02
GCCGGAUGAAAUAACCAAATT against 2310003C23Rik | inactive: -1.45

Sequence | z-score
GGAUGAAUUCAUUGAAGAATT against Btk | inactive: -0.287
GGAGUCAUUGACCAGAUAUTT against Psmd5 | inactive: -0.407
CCGAGAGUGCUGGAUGAUATT against 2600017J23Rik | inactive: -1.95
CGAUUUUCUAACCUCGAGUTT against Dlx2 | inactive: -0.0245
GGAUGAUAUAGUAUCUACGTT against 2610022G08Rik | inactive: 0.628
GGCUGGUGGAUAAUGAUUGTT against B230114J08Rik | inactive: -1.24
CCAUCAGGGUUACAAGUACTT against 6030458C11Rik | inactive: -2.16
GCAGAGACUACUUAGCAAGTT against 2310004I24Rik | inactive: 2.27
GGAUGAACGAGCUAUCGAGTT against Pdcl3 | inactive: 0.806
GGGUCCUAUUUAUUUAUGUTT against Cxcl1 | inactive: 0.472
GCAAGCUGUUUGUUCCAAUTT against Gtf3c4 | inactive: -1.49
GCAGUAUAAGAAUUUCAUGTT against A930021O22 | inactive: -0.351
GGCAAUGCUAAAUAUUUGCTT against Ndor1 | inactive: 1.31
GGAAUUGAUUCUCUUCUCATT against Top2b | inactive: -0.598
CGUAACCAAACCCUGGUUCTT against Ccnl1 | inactive: -0.415
GGCGAUUGAGUUUGUUUUGTT against Rabggtb | inactive: 0.14
GGUCUUCAGUCCUGUACCATT against LOC278676 | inactive: -1.08
GGAGAUGAAGACAUGGGACTT against Sly | inactive: -0.774
GCCUGAGAAACAUUCGGCATT against H2-T24 | inactive: -0.178
GGAAGAGGCGCACAUAACGTT against 5830436D01Rik | inactive: 0.479
GGAUUUGGUGAUCCACUGGTT against AV273951 | inactive: -2.09
GGGAAAAGCACAGAGCUGATT against Tk1 | inactive: 0.173
